These results are taken from PubChem BioAssay AID1347423 (Functional Genomics Laboratory (NCATS/FGL), 2020).

About 210 (0.4%) of roughly 52,000 sequences were called active.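 The calls were made as follows: active = gene whose silencing raises cell survival under the drug, median off-target-corrected z-score across its silencing RNAs 2 or more; inactive = the rest.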 This is one part of the list.

The nature of this assay: Resistance to Poly (ADP-Ribose) Polymerase inhibitor: Gene Identification via Genome-wide siRNA Screen. The note with it: mouse BRCA2 R2336H ES cells, olaparib, CellTiter-Glo viability; active compounds read high. In a few lines: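 Genome-wide siRNA screen (3 siRNAs/gene, 20 nM) in mouse ES cells carrying hypomorphic BRCA2 R2336H; olaparib 500 nM added 48 h post-transfection, CellTiter-Glo viability 72 h later. Normalized to plate-median negative control; MAD z-scores, gene median, seed-adjusted.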
(Cellular ATP, detected with luciferase, serves as a proxy for viable cell number.)
Regarding GGUAGCUAUUAAAGAAUCCTT against AW209491, the z-score was inactive: 0.621. To GGAUCCUUUGGUUAUAAGATT against Nav1 belongs inactive: 0.307; to CCUAAAAGACUUCAUCCGUTT against Kcnh8, inactive: 0.718; to GGACAAGAUUGUAUCUGCATT against Olfr1507, inactive: -0.834. “GCCUUUAACAGCUCUUAAUTT against A430041E03”: the z-score is inactive: -0.755. To GCCAGUGACUGUCCUUACATT against Dag1 belongs inactive: 0.206; to GGCAACCAAAACGAUACAATT against Entpd7, inactive: -0.362. Then GGAGAAACGCAUCAACCCUTT against Pou2f2, with inactive: 1.99. For “CCUAUUUUUGCCCUAUAGUTT against 1700019F09Rik”, the z-score is inactive: 1.89. In the case of GGAGAAGCUGAAGACCAAGTT against Rpl35, the z-score was inactive: 0.322. With GCAUUGUGCUCAAAUCUGCTT against C1qtnf7, the z-score was inactive: -0.467.

In the case of GCGAGAUGUAGUAACAGAGTT against Adam15, the z-score was inactive: -0.847. To GGUCCAAGCUUAAAUUUGUTT against Mrpl16 belongs inactive: 0.0306. Then “GGACUUCUAGAGAACUUGUTT against 2900092C05Rik”, with inactive: 1.96; and GACCGGUCAAGUUUUUUCGTT against Pfn1, with inactive: -0.746.

Turning to GGAGUUGUGAAUUUCUCGUTT against Sri, the z-score was inactive: 0.905.

Turning to GGUUUUAUUUGGGAUUAGCTT against Zfp289, the z-score is inactive: 0.161. GGUGAUAAAGCUAUGUAUUTT against Ctgf: the z-score was inactive: 0.649. Regarding “CCCACAAGUUUCAUCUGACTT against 4933437N03Rik”, the z-score is inactive: -0.671. To “GGAGUCCAAGUUUAAGGAATT against 4930522H14Rik” belongs inactive: -0.171; to GGAUUGAGGCUAAGUAGCGTT against Tnfrsf13b, inactive: -0.131; to “GGGAAAAUGUGGGAAUUUUTT against C730042F17Rik”, inactive: -0.172. To GGCCCACAAAAGGUAUGAATT against AW551984 belongs inactive: 1.75; to GGACAUUCGGCUAUAGCACTT against P2ry2, inactive: 0.631; to GGAAAUCACUGGUUUUCAATT against Asah2, inactive: -0.116. To GGUGAUGCUAAGAAGUUACTT against Rnf122 belongs inactive: -0.146; to CCUCCAGAUAACAAAUGCATT against Dlx3, inactive: -0.365.

For GGAUCCGUGAAUGUAGUCATT against Rapgef4, the z-score is inactive: -0.497. To GCGAACUUUUACAUUUCGATT against Gmpr belongs inactive: 1.19. Then GGAAAAAGUGACAUUUUCUTT against AW551984, with inactive: 0.934. Then “GGUUUUACAUCUAUGGAGUTT against 4933417A18Rik”, with inactive: 1.39; and GCCUUACCAACUUCAGUUATT against Rps27l, with inactive: -1.07. In the case of GGUGGUGUUUGAAAAGUGUTT against Mst1, the z-score is inactive: -1.94. Then “GGCCAGGAUAGCACUUCUUTT against 1110007C02Rik”, with inactive: -0.277. To GGUUUUUUUCUUCACAGGUTT against Olfr127 belongs inactive: 0.486; to CGAAUGAAAGAAUACCGUGTT against Dnajc6, inactive: -0.482; to GGAAAAACUCCCUCGGUACTT against Rps11, inactive: -3. For the sequence GAAAGUGUUCAGGAAGCUGTT against Klra19, the z-score is inactive: 0.338. Then GGAAGGGACUGAUCGGUACTT against Igsf8, with inactive: -0.15; and CCCACUGGUUUGUUUAAACTT against Dtr, with inactive: 0.614. As for GGGUAUCCAGUAUUUGAUCTT against Iqsec2, the z-score was inactive: -0.162. To GGCAGCAUGGAGAACGAGATT against Camk1 belongs inactive: -0.509; to “GGAAACAUUAGAAUCUUGUTT against 5830457H20Rik”, inactive: 0.663.

For the sequence GGGCAUUUCUUUGUCUAUCTT against Nme1, the z-score is inactive: -0.736. On to GGUAGCAGACAGCUACCCUTT against Tnfsf15, for which the z-score was inactive: 0.579.

With GGUGAAAAAGGUUAGAAAATT against Wasf3, the z-score is inactive: -0.0953.

On to CCCUUUUACUGAGAAUAAUTT against Map2k1ip1, for which the z-score was inactive: 0.208. Then GGAAAACCAGAAAGAAUUUTT against Crnkl1, with inactive: -0.0852; and GGACUAAAAGAUUGGUGGUTT against Polr2k, with inactive: -2.6. To GGCUUCUUUUCACAAAUAGTT against Nipsnap1 belongs inactive: -0.0452; to GGCUUAUACAAGGUGCUCATT against Olfr661, inactive: -0.887; to GCUCUUCUCAGAGUGUGUATT against Rwdd3, inactive: 0.191. Then “GGAGACGAUCCAAGAAGAATT against 2310009E07Rik”, with inactive: 1; and GCUUUGUGGAGUUCAACCUTT against Kcnh6, with inactive: 0.256. Take GGUGCAUGCACUGAAGAAGTT against Mpv17: the z-score is inactive: -0.984. To “GCAGCUGGAUAUCAUAAAATT against 5033413D22Rik” belongs inactive: 0.284; to CCUUCUUUAAACCUCCAUGTT against Vegfc, inactive: -0.826. To GCCUUAGGCAUUUAGAUUUTT against Zbed4 belongs inactive: -0.495. Then GGGAACCGCUUAUAUGUCCTT against Tbx21, with inactive: 0.452; and “GCAGUCUUGGAAAUAACGATT against 4930540L03Rik”, with inactive: -0.256; and UUCCAUUCAUAUGUCUUGATT against Tas2r109, with inactive: -1.65.

For “GCACAGUAACCUAAAAUACTT against 5730590C14Rik”, the z-score is inactive: -0.0934.

On to CGACUAGGCAUCUAUGAAGTT against Kremen2, for which the z-score is inactive: 0.111. Regarding CCCUGUAUCAUGCACGUAATT against Kcnj4, the z-score is inactive: -0.327. Then “GCCGUGUGGUAAUAGUGUCTT against 2610209N15Rik”, with inactive: 0.284; and GGAAGCACAAGUGCCACUATT against Klf13, with inactive: 0.541; and GAUCAUCGGCAUUUUGAACTT against Il4, with inactive: 0.0896. To GGCUGACUAUGCUGCCACATT against Npdc1 belongs inactive: -1.83; to CGAGCUUGUUUUUGGAAGUTT against Urp, inactive: 0.286; to GCUACUUGAAUUUAAGGAATT against Kdt1, inactive: -1.04. Then GGUACCUGAAUGACUUAUATT against Hcfc1, with inactive: -2.25; and GGCUCAAUUUGGAAAGGACTT against Anxa8, with inactive: -0.00365; and GGUCCCUGGAAACCAUCAGTT against Ssxb2, with inactive: -0.917.

“GGUUCCCAAUACUAUCAGGTT against D230039L06Rik”: the z-score was inactive: 0.0804.

In the case of GGUCUUCAAUAAACUCAUCTT against Bzw2, the z-score is inactive: -1.36.

Consider CCUGUGCAUACGUUUGGCATT against Olfr1335, for which the z-score is inactive: -1.29.

Turning to “GGUGCCUGUAUAUCUCCAATT against 9430007A20Rik”, the z-score is inactive: -0.897. To CGAGCACUAUUUUGGAUUATT against Usp12 belongs inactive: -0.0803. Then “GGAACAUCUACAUUGUGGCTT against D14Ertd226e”, with inactive: 0.734; and GGUUAGCAGGGACCUAAUGTT against Zfp94, with inactive: 0.509; and GCACAAACCUGUGGCAUUUTT against Cacnb3, with inactive: 0.868. To GGCUCAUUUCCUUAUAUGATT against BC027231 belongs inactive: 0.135; to GCCGCCUGCUAUUUUUCCUTT against AI505034, inactive: 0.681; to GGAUAUGGAUAAAUGACAUTT against BC021875, inactive: 0.312. As for ACGAUAUGUUGACCUUGGCTT against LOC545288, the z-score was inactive: -0.28. To GCUACAUCUGCUUCCUUUUTT against Olfr623 belongs inactive: -0.237. To “CCUUUUAUAACUGCUCUCUTT against D17Ertd441e” belongs inactive: -0.567; to GGAGAUCGUGGAGAUGUACTT against Myh9, inactive: -0.484; to GGGUGUUAGAAAUCAUUAUTT against AI841987, inactive: 1.04. Turning to GGAAUCAAAUUUGAUGCCATT against Cckar, the z-score is inactive: 0.28. For the sequence “GGGAUUUAGCACAAGAUACTT against B830045N13Rik”, the z-score is inactive: 1.3.

As to GCCUGCAUUUACAAGUACUTT against Itm2a, the z-score was inactive: -0.519.

GGAAGAAAAAGUCCUGUCCTT against Abp1: the z-score is inactive: 2.45. To “GCGAGGUGAAAAGCUUCUGTT against 5330439J01Rik” belongs inactive: -0.26; to “GCUUUUGAUCUGGAGACCCTT against 4931406O17Rik”, inactive: 0.745; to GGAAGGUAAUAUUACAAGCTT against MGC54896, inactive: 0.135. To GGUGGCUCUCCAAGUUCUATT against Uchl4 belongs inactive: -0.625; to “GGACAUGUCGGUUUUGUGCTT against 1810049O03Rik”, inactive: 0.309; to “CCUCUGACACCUUAGCGAATT against 4930403L05Rik”, inactive: -0.647. Then GGUAACCAGUCAACACCCUTT against Cd19, with inactive: 0.768. As to “GCCAAUUGUGUCUAAAUUUTT against A530023O14Rik”, the z-score is inactive: 0.835. To GCGAGAACCAAGACCUUUCTT against Tyms belongs inactive: -1.35; to GGCUGUAAUUUUGAACAAUTT against Rnf17, inactive: -1.26.
